Results as given in PMC4177214.
Results are given in words; binding and its absence hold for the method and conditions named. Binding calls can cover weak binding; strength is not graded here.

By UniProt entry, the sequences of proteins in these tests, tags left out. Where a name states a change or a piece, a line headed by the entry shows the natural chain unless it says otherwise.
UniProt Q9VCG6: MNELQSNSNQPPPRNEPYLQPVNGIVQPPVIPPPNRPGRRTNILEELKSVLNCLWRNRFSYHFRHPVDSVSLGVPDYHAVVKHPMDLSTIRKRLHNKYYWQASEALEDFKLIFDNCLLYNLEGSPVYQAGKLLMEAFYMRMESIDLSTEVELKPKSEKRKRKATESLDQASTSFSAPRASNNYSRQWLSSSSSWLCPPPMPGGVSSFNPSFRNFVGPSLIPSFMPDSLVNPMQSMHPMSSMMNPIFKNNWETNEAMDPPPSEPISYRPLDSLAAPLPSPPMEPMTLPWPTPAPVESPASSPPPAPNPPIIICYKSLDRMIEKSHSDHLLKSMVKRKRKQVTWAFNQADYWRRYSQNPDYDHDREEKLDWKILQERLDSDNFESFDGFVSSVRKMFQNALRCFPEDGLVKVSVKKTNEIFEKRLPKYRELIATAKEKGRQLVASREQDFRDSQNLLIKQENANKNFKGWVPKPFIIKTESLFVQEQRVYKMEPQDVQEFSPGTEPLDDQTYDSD

Legend:
Experiment in all cases: two-hybrid; Matchmaker GAL4 Two-Hybrid System 3 (Clontech); every coding region in pGBKT7 (DBD, bait) and pGADT7 (AD, prey); read-out colony growth and blue colour (lacZ)
[1] = biological target: Cannonball (Can) (Drosophila melanogaster) (UniProt Q9VT91)
[2] = biological target: tBRD-2 (testis-specifically expressed bromodomain-containing protein-2) (Drosophila melanogaster) (UniProt Q4V5A7)
[3] = biological target: tBRD-3 (testis-specifically expressed bromodomain-containing protein-3) (Drosophila melanogaster) (UniProt Q4V6Y4)

binding [1]	binding [2]	binding [3]	Substance
no binding			tBRD-2 (testis-specifically expressed bromodomain-containing protein-2) (from UniProt Q4V5A7)
binds	binds	binds	tBRD-1 (testis-specifically expressed bromodomain-containing protein-1) (from UniProt Q9VCG6)
no binding			tBRD-3 (testis-specifically expressed bromodomain-containing protein-3) (from UniProt Q4V6Y4)
